{"source": "PubChem BioAssay AID1508588 (Peter MacCallum Cancer Centre, 2020)", "assay": "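Genome-wide search for knock-downs that heighten vemurafenib action in melanoma cells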 (primary screen)", "cell system": "human WM266.4 melanoma cells (BRAF V600 mutant)", "reagent": "siRNA pool against human genes, 40 nM", "duration": "96 h from transfection to read-out", "challenge": "vemurafenib 300 nM (about IC25), added 48 h after transfection, for 48 h; comparison arm got DMSO vehicle only", "detection": "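Ratios to non-targeting siRNA for cell gain, counted as DAPI nuclei after minus before drug and averaged over two replicates, and for absorbance-read medium lactate per cell; both binned into fold-change classes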", "direction": "cell gain with vemurafenib: higher = more cell gain than with non-targeting siRNA; lactate per cell with vemurafenib: higher = more lactate made per cell", "call rule": "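a knock-down counts as enhancing when its fold-change classes with vehicle and with vemurafenib, taken together, show a stronger drug effect on cell gain or lactate per cell; exact class pairs not stated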", "calls": "active = enhances vemurafenib effect; inactive = no enhancement seen", "note": "Here is one part, drawn at random, of about 18,000 reagents. Over the whole deposit, 790 (4.4%) were called active. 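Calls rest on a combination of fold-change classes in drug and vehicle arms, not all shown here.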 Unmarked entries are inactive. Reagents against one gene are numbered here."}
{"Target gene": "SPOCK1 (GeneID 6695)", "pool no.": 1, "cell gain with vemurafenib": 0.47, "lactate per cell with vemurafenib": 0.76}
{"Target gene": "ERCC6L2 (GeneID 375748)", "pool no.": 1, "cell gain with vemurafenib": 0.43, "lactate per cell with vemurafenib": 0.84}
{"Target gene": "ERCC6L2 (GeneID 375748)", "pool no.": 2, "cell gain with vemurafenib": 0.36, "lactate per cell with vemurafenib": 0.81}
{"Target gene": "RECQL4 (GeneID 9401)", "pool no.": 1, "cell gain with vemurafenib": 0.52, "lactate per cell with vemurafenib": 0.84}
{"Target gene": "PPM1E (GeneID 22843)", "pool no.": 1, "cell gain with vemurafenib": 0.68, "lactate per cell with vemurafenib": 0.48}
{"Target gene": "CST9 (GeneID 128822)", "pool no.": 1, "cell gain with vemurafenib": 0.51, "lactate per cell with vemurafenib": 0.57}
{"Target gene": "INHBC (GeneID 3626)", "pool no.": 1, "cell gain with vemurafenib": 0.85, "lactate per cell with vemurafenib": 0.88}
{"Target gene": "GLS (GeneID 2744)", "pool no.": 1, "cell gain with vemurafenib": 0.46, "lactate per cell with vemurafenib": 1.78}
{"Target gene": "MAP4K3 (GeneID 8491)", "pool no.": 1, "cell gain with vemurafenib": 0.3, "lactate per cell with vemurafenib": 0.9}
{"Target gene": "SEC22A (GeneID 26984)", "pool no.": 1, "cell gain with vemurafenib": 0.6, "lactate per cell with vemurafenib": 0.78}
{"Target gene": "GPC5 (GeneID 2262)", "pool no.": 1, "cell gain with vemurafenib": 0.49, "lactate per cell with vemurafenib": 1.02}
{"Target gene": "VPS50 (GeneID 55610)", "pool no.": 1, "cell gain with vemurafenib": 0.77, "lactate per cell with vemurafenib": 0.85}
{"Target gene": "LYST (GeneID 1130)", "pool no.": 1, "cell gain with vemurafenib": 0.62, "lactate per cell with vemurafenib": 0.86}
{"Target gene": "LYPD8 (GeneID 646627)", "pool no.": 1, "cell gain with vemurafenib": 1.02, "lactate per cell with vemurafenib": 0.62}
{"Target gene": "ECPAS (GeneID 23392)", "pool no.": 1, "cell gain with vemurafenib": 0.44, "lactate per cell with vemurafenib": 0.26}
{"Target gene": "MRPL12 (GeneID 6182)", "pool no.": 1, "cell gain with vemurafenib": 0.79, "lactate per cell with vemurafenib": 1.04}
{"Target gene": "DDX3X (GeneID 1654)", "pool no.": 1, "cell gain with vemurafenib": 0.15, "lactate per cell with vemurafenib": 0.9}
{"Target gene": "TDG (GeneID 6996)", "pool no.": 1, "cell gain with vemurafenib": 0.73, "lactate per cell with vemurafenib": 0.87}

Next part; the last 3 above are carried over.
{"Target gene": "MRPL12 (GeneID 6182)", "pool no.": 1, "cell gain with vemurafenib": 0.79, "lactate per cell with vemurafenib": 1.04}
{"Target gene": "DDX3X (GeneID 1654)", "pool no.": 1, "cell gain with vemurafenib": 0.15, "lactate per cell with vemurafenib": 0.9}
{"Target gene": "TDG (GeneID 6996)", "pool no.": 1, "cell gain with vemurafenib": 0.73, "lactate per cell with vemurafenib": 0.87}
{"Target gene": "TAS2R43 (GeneID 259289)", "pool no.": 1, "cell gain with vemurafenib": 0.42, "lactate per cell with vemurafenib": 0.77}
{"Target gene": "RUNDC3A (GeneID 10900)", "pool no.": 1, "cell gain with vemurafenib": 0.49, "lactate per cell with vemurafenib": 0.62}
{"Target gene": "UBE4A (GeneID 9354)", "pool no.": 1, "cell gain with vemurafenib": -0.07, "lactate per cell with vemurafenib": 2.66}
{"Target gene": "PIGY (GeneID 84992)", "pool no.": 1, "cell gain with vemurafenib": 0.37, "lactate per cell with vemurafenib": 1.14}
{"Target gene": "ARMCX1 (GeneID 51309)", "pool no.": 1, "cell gain with vemurafenib": 0.85, "lactate per cell with vemurafenib": 0.65}
{"Target gene": "RPL3L (GeneID 6123)", "pool no.": 1, "cell gain with vemurafenib": 0.24, "lactate per cell with vemurafenib": 0.42}
{"Target gene": "TCP11 (GeneID 6954)", "pool no.": 1, "cell gain with vemurafenib": "0.18 (active)", "lactate per cell with vemurafenib": 0.45}
{"Target gene": "UNC50 (GeneID 25972)", "pool no.": 1, "cell gain with vemurafenib": 0.84, "lactate per cell with vemurafenib": 0.99}
{"Target gene": "LRIG3 (GeneID 121227)", "pool no.": 1, "cell gain with vemurafenib": 1.39, "lactate per cell with vemurafenib": 0.7}
{"Target gene": "PRDX3 (GeneID 10935)", "pool no.": 1, "cell gain with vemurafenib": 1.07, "lactate per cell with vemurafenib": 0.44}
{"Target gene": "KIF25 (GeneID 3834)", "pool no.": 1, "cell gain with vemurafenib": 0.42, "lactate per cell with vemurafenib": 1.16}
{"Target gene": "RPS19 (GeneID 6223)", "pool no.": 1, "cell gain with vemurafenib": -0.1, "lactate per cell with vemurafenib": 2.34}
{"Target gene": "GNG11 (GeneID 2791)", "pool no.": 1, "cell gain with vemurafenib": 0.87, "lactate per cell with vemurafenib": 0.78}
{"Target gene": "CHST5 (GeneID 23563)", "pool no.": 1, "cell gain with vemurafenib": 0.63, "lactate per cell with vemurafenib": 0.98}
{"Target gene": "ANOS1 (GeneID 3730)", "pool no.": 1, "cell gain with vemurafenib": 0.48, "lactate per cell with vemurafenib": 1.31}
{"Target gene": "JUND (GeneID 3727)", "pool no.": 1, "cell gain with vemurafenib": 0.42, "lactate per cell with vemurafenib": 0.6}
{"Target gene": "GPRASP2 (GeneID 114928)", "pool no.": 1, "cell gain with vemurafenib": 0.61, "lactate per cell with vemurafenib": 0.6}
{"Target gene": "ARID2 (GeneID 196528)", "pool no.": 1, "cell gain with vemurafenib": 0.84, "lactate per cell with vemurafenib": 0.66}
{"Target gene": "SPEF1 (GeneID 25876)", "pool no.": 1, "cell gain with vemurafenib": 0.34, "lactate per cell with vemurafenib": 1.56}
{"Target gene": "CCAR2 (GeneID 57805)", "pool no.": 1, "cell gain with vemurafenib": 0.21, "lactate per cell with vemurafenib": 1.59}
{"Target gene": "SLC7A3 (GeneID 84889)", "pool no.": 1, "cell gain with vemurafenib": 1.15, "lactate per cell with vemurafenib": 0.63}
{"Target gene": "CCNF (GeneID 899)", "pool no.": 1, "cell gain with vemurafenib": 1, "lactate per cell with vemurafenib": 0.74}
